From PMC8605323
These are yes or no findings as the source states them, for the method shown.

Target: full-length mouse Irgb6 (Mus musculus) (UniProt Q3T9E4)
Experiment: SEC; HiLoad 16/600 Superdex 75 pg column, 50 mM HEPES-KOH pH 7.5, 150 mM NaCl, 5 mM MgCl2, 2 mM dithiothreitol, 4°C; Irgb6 eluted at about 47 kD; both purified

binding: no binding
B1: full-length mouse Irgb6 (enzyme, UniProt Q3T9E4 1-415)
chain: GPMAWASSFDAFFKNFKRESKIISEYDITLIMTYIEENKLQKAVSVIEKVLRDIESAPLHIAVTGETGAGKSTFINTLRGVGHEEKGAAPTGAIETTMKRTPYPHPKLPNVTIWDLPGIGTTNFTPQNYLTEMKFGEYDFFIIISATRFKENDAQLAKAIAQMGMNFYFVRTKIDSDLDNEQKFKPKSFNKEEVLKNIKDYCSNHLQESLDSEPPVFLVSNVDISKYDFPKLETKLLQDLPAHKRHVFSLSLQSLTEATINYKRDSLKQKVFLEAMKAGALATIPLGGMISDILENLDETFNLYRSYFGLDDASLENIAQDLNMSVDDFKVHLRFPHLFAEHNDESLEDKLFKYIKHISSVTGGPVAAVTYYRMAYYLQNLFLDTAANDAIALLNSKALFEKKVGPYISEPPEYWEA
